# In patent US6403618B1, “Agent and method for controlling angiogenesis” (Novactyl, Inc., priority 2000, dated 2002):
# At least one structure is not confirmed: it was looked up by name or label, or the drawing left a doubt.
# Assays:
# [1] = test system: Kirsten (K) sarcoma retrovirus-transformed NRK cells; assay: Expression of retroviral mRNA levels; format: cell-based; conditions: preliminary experiments
# WI-38 cells [2] = assay: Effect of fusaric acid on growth (cell number); format: cell-based; conditions: 500 μM, FIG. 3A
# From the text: The remaining cells were spread on the substratum in normal manner without any visible mitosis for 4 days after removal of the drug.
# [3] = test system: human breast adenocarcinoma MDA-468 cells; assay: Effect of fusaric acid on growth (cell number); format: cell-based; conditions: 500 μM
# Description: After 12-24 hours of treatment with 500 μM fusaric acid, there was no further increase in cell number. […] These floating cells were not viable. Within 30 hours of treatment there was a 65% decrease in cell number. […] After 96 hours, less than 10% of the original population remained attached to the dish and no change in cell number was noted after one additional week.
# [4] = test system: colon carcinoma LoVo cells; assay: Effect of fusaric acid on growth (cell number); format: cell-based; conditions: 500 μM, FIG. 3B
# Description: After 30 hours of treatment with 500 μM fusaric acid, there was a prominent decrease in cell number. DNA synthesis was completely (100%) inhibited by 24 hours. When treated with 500 μM fusaric acid, the majority of the LoVo cells acquired a rounded morphology by 48 hours.
# These floating cells were not viable. […] However, after 100 hours, an increase in cell number was noted after 25 additional hours.
# recombinant MPS-1 = recombinant MPS-1 (Homo sapiens, UniProt P42677); assay: Zinc dependent binding of MPS-1 to DNA, gel shift assays and 65Zn; format: biochemical
# From the text: MPS-1 is a ubiquitous tumor marker and cell growth stimulator and is described in detail in the inventor's U.S. Pat. No. Re.35,585 (No. 5,243,041). MPS-1 has one zinc finger domain of the type CCCC. […] This is detected by a change in the electrophoretic mobility of MPS-1 under non-denaturing conditions. These experiments indicate that picolinic acid and derivatives should remove zinc and denature various types of zinc finger or zinc ring proteins, whether known or heretofore undiscovered, including viral proteins such as nucleocapsid p7 proteins, as will be explained further. Furthermore, the inventor has determined that any chemical compound, whether known or heretofore undiscovered, that will remove the zinc (or other metal) and denature the proteins or that will form a ternary complex (protein-zinc-chelator) can be effective as a therapeutic agent or as an autologous immune response modulator, as will be discussed in greater detail below.
# [5] = test system: cells with high levels of P170 protein; assay: Growth of cells with increased P-protein activity; format: cell-based
# human carcinoma KB cells = assay: Effect of fusaric acid on growth (cell number); format: cell-based; conditions: 500 μM
# WI-38 cells [6] = assay: Effect of different doses of fusaric acid on total cell protein; format: cell-based
# Description: (§1) In initial experiments to examine the effects of fusaric acid on cell growth and viability, WI-38 and LoVo cells were incubated for 24 to 72 hours in medium with or without various doses of fusaric acid (0.1-1 mM). The growth of both WI-38 and LoVo cells was inhibited by 500 μM fusaric acid in a time and dose dependent manner, as shown below in Table 2.
# LoVo cells = assay: as above; format: cell-based
# Description: as §1
# [7] = 500 μM fusaric acid, 24 to 72 hours
compound,measurement,setting,value
CCCCc1ccc(C(=O)O)nc1 [fusaric acid],expression of retroviral mRNA levels,[1],reduces
same,growth of WI-38 cells,WI-38 cells [2],strongly inhibited
same,MDA-468 cell growth,[3],rapidly inhibited
same,LoVo cell growth,[4],inhibited
same,removal of radioactive 65Zn from MPS-1,"recombinant MPS-1; CCCC zinc finger, electrophoretic mobility, non-denaturing conditions",remove radioactive ^65Zn from MPS-1
same,zinc dependent binding of recombinant MPS-1 to DNA,recombinant MPS-1; gel shift assays,inhibit
same,control of growth of cells with high levels of P170 protein,[5],effective
same,growth of KB cells,human carcinoma KB cells,inhibited
same,toxicity,WI-38 cells [6]; 500 μM fusaric acid,little toxicity
same,growth,WI-38 cells [6]; [7],inhibited
same,rate of cell growth,WI-38 cells [6]; 1 mM fusaric acid,pronounced decrease
same,toxicity,LoVo cells; 500 μM fusaric acid,some differential toxicity
same,growth,LoVo cells; [7],inhibited
same,rate of cell growth,LoVo cells; 1 mM fusaric acid,pronounced decrease
